This passage reports binding results from paper PMC10979585.

Protein sequences, listed by entry. Tags and fused reporters are not part of them.
UniProt Q9WVA3: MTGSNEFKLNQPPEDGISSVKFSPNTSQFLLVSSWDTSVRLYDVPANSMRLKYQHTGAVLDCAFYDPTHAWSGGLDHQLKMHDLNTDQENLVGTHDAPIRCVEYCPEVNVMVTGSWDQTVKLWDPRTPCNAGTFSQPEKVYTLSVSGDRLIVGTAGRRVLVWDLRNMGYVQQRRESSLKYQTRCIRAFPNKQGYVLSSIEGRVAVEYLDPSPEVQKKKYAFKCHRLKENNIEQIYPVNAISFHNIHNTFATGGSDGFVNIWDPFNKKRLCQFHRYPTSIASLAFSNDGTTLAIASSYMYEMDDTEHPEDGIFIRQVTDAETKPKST

Like-named read-outs stand apart in the source and are kept apart here. Results are given in words; binding and its absence hold for the method and conditions named. Binding seen in cells or lysates may run through a third protein. Some results given as binding are weak or reduced against the parent protein; the word gives no strength.

In test [1] the target is T1, KIFC3 (mouse (endogenous in ovaries)) (UniProt O35231).
T1 sequence: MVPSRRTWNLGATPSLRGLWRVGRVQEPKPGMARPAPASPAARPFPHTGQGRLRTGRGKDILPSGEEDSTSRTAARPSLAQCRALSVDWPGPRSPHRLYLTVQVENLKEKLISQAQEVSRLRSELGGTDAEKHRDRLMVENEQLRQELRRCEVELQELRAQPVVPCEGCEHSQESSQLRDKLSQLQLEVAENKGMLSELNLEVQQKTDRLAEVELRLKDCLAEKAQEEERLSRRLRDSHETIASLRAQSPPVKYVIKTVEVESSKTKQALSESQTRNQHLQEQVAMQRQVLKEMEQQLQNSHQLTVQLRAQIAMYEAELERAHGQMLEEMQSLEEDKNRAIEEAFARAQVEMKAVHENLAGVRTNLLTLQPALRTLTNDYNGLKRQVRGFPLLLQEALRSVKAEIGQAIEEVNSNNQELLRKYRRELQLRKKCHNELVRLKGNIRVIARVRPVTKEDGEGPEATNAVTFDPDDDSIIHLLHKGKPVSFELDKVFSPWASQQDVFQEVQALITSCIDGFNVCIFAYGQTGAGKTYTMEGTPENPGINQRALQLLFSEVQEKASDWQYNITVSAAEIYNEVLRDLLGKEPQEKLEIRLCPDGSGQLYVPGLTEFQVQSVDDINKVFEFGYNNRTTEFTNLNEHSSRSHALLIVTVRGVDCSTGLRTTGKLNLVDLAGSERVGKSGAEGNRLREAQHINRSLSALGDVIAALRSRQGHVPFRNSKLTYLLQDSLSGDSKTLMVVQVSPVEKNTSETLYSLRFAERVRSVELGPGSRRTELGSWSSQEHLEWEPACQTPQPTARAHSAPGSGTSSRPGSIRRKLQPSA
Description: co-IP; anti-KIFC3 antibody on Dynabeads Protein G, supernatant of lysate of 10 mouse ovaries, overnight at 4 °C; IgG as control antibody; precipitates analysed by western blotting.

In test [2] the target is T1, KIFC3 (mouse (endogenous in ovaries)). The test is described as above. This is another data set of the same source.

Consider Bub3 (from UniProt Q9WVA3 1-326), for which, in test [1], the binding entry is “binds”.

B1: PRC1 (protein, UniProt Q99K43 1-603)
chain: MRRSEVLADESITCLQKALTHLREIWELIGIPEEQRLQRTEVVKKHIKDLLDRMIAEEESLRERLLKSISICQKELSTLCSELQVKPFQEEKDTTILQLEKDLRTQVELMRKQKKERKQELKLLQEQEQELRDILCMPPCDVDSTSVPTLEELKLFRQRVATLRETKESRREEFVNIKKQIILCMEELEHSPDTSFERDVVCEDESAFCLSLENIATLQKLLKQLEMKKSQNEAECEGLRTQIRELWDRLQIPEEEREPVEAIMTGSKTKIRNALKLEVDRLEELKMQNIKQVIEKIRVELAQFWDQCFYSQEQRQAFAPYYSEDYTENLLHLHDAEIVRLRNYYDVHKELFQGVQKWEESWKLFLEFERKASDPGRFTNRGGNLLKEEKERAKLQKTLPKLEEELKARIEQWEQEHSTAFVVNGQKFMEYVTEQWELHRLEKERAKQERQLKNKKQTEAEMLYGSTPRTPSKRPGQTPKKSGKMNTTTMSSATPNSSIRPVFGGSVYRSPMSRLPPSGSKSVVTSLCSGKKTPRAAQLRANKENLDLNGSILSGGYPGSTPLQHNCSIKSVASTYSEFSRELSKASRSDATSRILNSTNIQS
With B1, the binding result in test [2] is recorded as “binds”.
